Measured values published in article PMC7822134.
No constants are given. Whether binding was seen depends on the method and setting. For some assays here: A result given as binding can be weak or reduced; the word gives no strength. For some assays here: Where a sequence is shown, tags or fusion partners need not be part of it. For some assays here: Binding seen in cells or lysates may run through a third protein.

By UniProt entry, the sequences of proteins in these tests, tags left out.
UniProt Q15836: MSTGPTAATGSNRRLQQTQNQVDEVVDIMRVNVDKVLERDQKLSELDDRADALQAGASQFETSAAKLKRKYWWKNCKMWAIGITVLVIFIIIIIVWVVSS

Experiments:
[1] = molecular target: CT442-FLAG (C. trachomatis serovar L2) (UniProt O84449); assay: co-IP; HeLa cells transfected with 6×His-VAMP3 or 6×His-VAMP4 and infected with C. trachomatis serovar L2 Inc-FLAG strains; aTc at 7 hpi (20 hpi also for CT442-FLAG); lysates at time points from 15 to 30 hpi; anti-FLAG magnetic beads, Western blot for FLAG and 6×His
[2] = molecular target: VAMP3 fused to the T25 fragment of adenylate cyclase (pST25-VAMP3) (human) (UniProt Q15836); assay: two-hybrid; bacterial adenylate cyclase-based two-hybrid (BACTH) in E. coli DHT1 (ΔcyaA); VAMP on T25 (pST25), Inc on T18 (pUT18C); M63 minimal medium plates at 30°C and quantitative β-galactosidase assay; positive = 5-fold over the negative controls (empty vector, IncE) in all three replicates
[3] = molecular target: T1, VAMP4 fused to the T25 fragment of adenylate cyclase (pST25-VAMP4) (human) (UniProt O75379); assay: as above
T1 sequence: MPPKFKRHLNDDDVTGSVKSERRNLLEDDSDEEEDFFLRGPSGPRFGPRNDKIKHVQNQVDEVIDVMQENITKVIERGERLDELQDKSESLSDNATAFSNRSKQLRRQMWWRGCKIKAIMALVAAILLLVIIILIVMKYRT

3×FLAG-VAMP4 (human) = molecular target: T2, 3×FLAG-VAMP4 (human) (UniProt O75379); assay: co-IP; uninfected HeLa cells cotransfected with 3×FLAG-VAMP3 or 3×FLAG-VAMP4 and an Inc-6×His; lysates at 24 h (50 mM Tris-HCl pH 7.4, 150 mM NaCl, 0.5% sodium deoxycholate, 0.1% SDS, 1% Triton X-100); anti-FLAG magnetic beads overnight at 4°C, FLAG peptide elution, Western blot
T2 sequence: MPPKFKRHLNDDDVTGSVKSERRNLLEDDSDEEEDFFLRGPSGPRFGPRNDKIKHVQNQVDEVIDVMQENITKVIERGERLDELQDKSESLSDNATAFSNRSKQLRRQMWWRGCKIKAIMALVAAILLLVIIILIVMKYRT

3×FLAG-VAMP3 (human) = 3×FLAG-VAMP3 (human) (UniProt Q15836); assay: as above
[4] = molecular target: CT222-FLAG (C. trachomatis serovar L2); assay: co-IP; HeLa cells transfected with 6×His-VAMP3 or 6×His-VAMP4 and infected with C. trachomatis serovar L2 Inc-FLAG strains; aTc at 7 hpi (20 hpi also for CT442-FLAG); lysates at time points from 15 to 30 hpi; anti-FLAG magnetic beads, Western blot for FLAG and 6×His
[5] = molecular target: CT223-FLAG (C. trachomatis serovar L2); assay: as above
[6] = molecular target: CT226-FLAG (C. trachomatis serovar L2); assay: as above
[7] = molecular target: CT449-FLAG (C. trachomatis serovar L2); assay: as above
[8] = molecular target: CT813-FLAG (C. trachomatis serovar L2); assay: as above
[9] = molecular target: IncA-FLAG (C. trachomatis serovar L2); assay: as above
[10] = molecular target: IncF-FLAG (C. trachomatis serovar L2); assay: as above
[11] = molecular target: IncG-FLAG (C. trachomatis serovar L2); assay: as above

For 6×His-VAMP3 (from UniProt Q15836 1-100), the binding [1] was “binds”.

“CT006 fused to the T18 fragment of adenylate cyclase (pUT18C) (from UniProt O84009)” was tested, and the binding [2] was “binds” and the binding [3] was “binds”.

In the case of “CT179 fused to the T18 fragment of adenylate cyclase (pUT18C) (C. trachomatis serovar L2)”, the binding [3] is reported as “binds”.

CT179-6×His (C. trachomatis serovar L2) was tested, and the binding (3×FLAG-VAMP4 (human)) was “no binding”.

With “CT222 fused to the T18 fragment of adenylate cyclase (pUT18C) (C. trachomatis serovar L2)” the binding [3] was “binds”.

For CT222-6×His (C. trachomatis serovar L2), the binding (3×FLAG-VAMP4 (human)) was “binds”.

For “CT223 fused to the T18 fragment of adenylate cyclase (pUT18C-CT223) (C. trachomatis serovar L2)”, the binding [3] was “binds”.

In the case of CT223-6×His (C. trachomatis serovar L2), the binding (3×FLAG-VAMP4 (human)) is reported as “binds”.

With “CT226 fused to the T18 fragment of adenylate cyclase (pUT18C-CT226) (C. trachomatis serovar L2)” the binding [3] was “binds”.

For CT226-6×His (C. trachomatis serovar L2), the binding (3×FLAG-VAMP4 (human)) was “binds”.

In the case of “CT442 fused to the T18 fragment of adenylate cyclase (pUT18C) (from UniProt O84449)”, the binding [2] is reported as “binds”.

CT442-6×His (from UniProt O84449) was tested, and the binding (3×FLAG-VAMP3 (human)) was “binds”.

For “CT449 fused to the T18 fragment of adenylate cyclase (pUT18C) (C. trachomatis serovar L2)”, the binding [3] was “binds”.

In the case of CT449-6×His (C. trachomatis serovar L2), the binding (3×FLAG-VAMP4 (human)) is reported as “binds”.

In the case of “CT813 fused to the T18 fragment of adenylate cyclase (pUT18C) (C. trachomatis serovar L2)”, the binding [3] is reported as “binds”.

CT813-6×His (C. trachomatis serovar L2) was tested, and the binding (3×FLAG-VAMP4 (human)) was “binds”.

With “IncA fused to the T18 fragment of adenylate cyclase (pUT18C-IncA) (C. trachomatis serovar L2)” the binding [3] was “binds”.

For IncA-6×His (C. trachomatis serovar L2), the binding (3×FLAG-VAMP4 (human)) was “binds”.

With “IncC fused to the T18 fragment of adenylate cyclase (pUT18C) (C. trachomatis serovar L2)” the binding [3] was “binds”.

For “IncF fused to the T18 fragment of adenylate cyclase (pUT18C-IncF) (C. trachomatis serovar L2)”, the binding [3] was “binds”.

IncF-6×His (C. trachomatis serovar L2) was tested, and the binding (3×FLAG-VAMP4 (human)) was “binds”.

With “IncG fused to the T18 fragment of adenylate cyclase (pUT18C) (C. trachomatis serovar L2)” the binding [3] was “binds”.

In the case of IncG-6×His (C. trachomatis serovar L2), the binding (3×FLAG-VAMP4 (human)) is reported as “binds”.

B1: 6×His-VAMP4 (protein, UniProt O75379 1-141)
chain: MPPKFKRHLNDDDVTGSVKSERRNLLEDDSDEEEDFFLRGPSGPRFGPRNDKIKHVQNQVDEVIDVMQENITKVIERGERLDELQDKSESLSDNATAFSNRSKQLRRQMWWRGCKIKAIMALVAAILLLVIIILIVMKYRT
With B1 the binding [4] was “no binding”, the binding [5] was “no binding” and the binding [6] was “no binding”. The binding [7] was “no binding”, the binding [8] was “no binding” and the binding [9] was “no binding”. For the same molecule, the binding [10] was “no binding” and the binding [11] was “no binding”.
